Data: patent US12279521B2, “Materials for organic electroluminescent devices” (Merck Patent GmbH, priority 2019, dated 2025)

Assay: Loss of OLED efficiency after baking of emission layer at elevated temperature
Settings: OLED per Tables 5 and 6
Source text: The production of the corresponding OLED components is described below.
One way of processing the matrix materials of the invention is from solution. There are already many descriptions of the production of completely solution-based OLEDs in the literature, for example in WO 2004/037887 by means of spin coating. There have likewise been many previous descriptions of the production of vacuum-based OLEDs, including in WO 2004/058911. In the examples discussed hereinafter, layers applied in a solution-based and vacuum-based manner are combined within an OLED, and so the processing up to and including the emission layer is effected from solution and in the subsequent layers (hole blocker layer and electron transport layer) from vacuum. For this purpose, the previously described general methods are matched to the circumstances described here (layer thickness variation, materials) and combined as follows. The general structure is as follows: substrate/ITO (50 nm)/hole injection layer (HIL)/hole transport layer (HTL)/emission layer (EML)/optional hole blocker layer (HBL)/electron transport layer (ETL)/optional electron injection layer/cathode (aluminium, 100 nm). Substrates used are glass plates coated with structured ITO (indium tin oxide) of thickness 50 nm. For better processing, they are coated with PEDOT:PSS (poly(3,4-ethylenedioxy-2,5-thiophene) polystyrenesulfonate, purchased from Heraeus Precious Metals GmbH & Co. KG, Germany). PEDOT:PSS is spun on from water under air and subsequently baked under air at 180° C. for 10 minutes in order to remove residual water. The hole transport layer and the emission layer are applied to these coated glass plates. The hole transport layer used is crosslinkable. A polymer of the structures depicted below is used, which can be synthesized according to WO 2010/097155 or WO 2013/156130:
The emission layer is composed of at least one matrix material (host material) and an emitting dopant (emitter). In addition, it is possible to use mixtures of a plurality of matrix materials and co-dopants. Details given in such a form as TMM-A (92%):dopant (8%) mean here that the material TMM-A is present in the emission layer in a proportion by weight of 92% and dopant in a proportion by weight of 8%. The mixture for the emission layer is dissolved in toluene or optionally chlorobenzene. The typical solids content of such solutions is about 17 g/I when, as here, the layer thickness of 60 nm which is typical of a device is to be achieved by means of spin-coating. The layers are spun on in an inert gas atmosphere, argon in the present case, and baked for 10 minutes.
The cathode is formed by the thermal evaporation of an aluminium layer of thickness 100 nm. The OLEDs are characterized in a standard manner. For this purpose, the electroluminescence spectra, current-voltage-luminance characteristics (IUL characteristics) assuming Lambertian radiation characteristics and the (operating) lifetime are determined. The IUL characteristics are used to determine indices such as, for example, external quantum efficiency at a particular brightness. LT97 @ 60 mA/cm^2 is the lifetime before the OLED, given a constant current density of 60 mA/cm^2, has fallen to 97% of the starting luminance.

[1] = Ref. temp. 150, elevated temp. 170
[2] = Ref. temp. 160, elevated temp. 180
[3] = Ref. temp. 150, elevated temp. 180
[4] = Ref. temp. 160, elevated temp. 170

Row | SMILES | Loss of efficiency after baking at elevated temperature [1] | Loss of efficiency after baking at elevated temperature [2] | Loss of efficiency after baking at elevated temperature [3] | Loss of efficiency after baking at elevated temperature [4]
1 | Cc1ccc2c(c1)-c1c(-c3cccc(-c4ccccc4)c3)cccc1C2(c1cccc(-c2cccc3c2-c2ccccc2C3(C)C)c1)c1cccc(-c2cccc3c2-c2ccccc2C3(C)C)c1 [Compound M-0172] | ≤5% |  |  | 
2 | c1ccc(-c2cc(-c3ccccc3)cc(-c3cccc(-c4cccc(C5(c6cccc(-c7cccc(-c8cc(-c9ccccc9)cc(-c9ccccc9)c8)c7)c6)c6ccccc6-c6ccccc65)c4)c3)c2)cc1 [Compound B-2, reference compound] |  | ≥10% |  | 
3 | c1ccc(-c2cccc(-c3cc(-c4cccc(-c5ccccc5)c4)cc(C4(c5cc(-c6cccc(-c7ccccc7)c6)cc(-c6cccc(-c7ccccc7)c6)c5)c5ccccc5-c5ccccc54)c3)c2)cc1 [Compound B-1, reference compound] |  | ≥70% | ≥70% | ≥10%
4 | c1ccc(-c2cc(-c3ccccc3)cc(-c3cccc(-c4cccc(C5(c6cccc(-c7cccc(-c8cc(-c9ccccc9)cc(-c9ccccc9)c8)c7)c6)c6ccccc6-c6c(-c7cccc(-c8ccccc8)c7)cccc65)c4)c3)c2)cc1 [Compound M-0162] |  |  | ≤5% | 
5 | c1ccc(-c2cccc(-c3cc(-c4ccccc4)cc(-c4cccc(C5(c6cccc(-c7cc(-c8ccccc8)cc(-c8cccc(-c9ccccc9)c8)c7)c6)c6ccccc6-c6ccccc65)c4)c3)c2)cc1 [Compound B-4, reference compound] |  |  | ≥10% | 
6 | c1ccc(-c2cc(-c3ccccc3)cc(-c3cccc(-c4cccc(C5(c6cccc(-c7cccc(-c8cc(-c9ccccc9)cc(-c9ccccc9)c8)c7)c6)c6cc7c(cc6-c6c5ccc5c6-c6ccccc6C56c5ccccc5-c5ccccc56)OCO7)c4)c3)c2)cc1 [Compound M-0226] |  |  | ≤5% | 
7 | c1ccc(-c2cc(-c3ccccc3)cc(-c3cccc(-c4cccc(C5(c6cccc(-c7cccc(-c8cc(-c9ccccc9)cc(-c9ccccc9)c8)c7)c6)c6ccccc6-c6c(-c7ccccc7)cccc65)c4)c3)c2)cc1 [Compound M-0002] |  | ≤5% | ≤5% | 
8 | c1ccc(-c2cccc(-c3cc(-c4cccc(-c5ccccc5)c4)cc(C4(c5cc(-c6cccc(-c7ccccc7)c6)cc(-c6cccc(-c7ccccc7)c6)c5)c5ccccc5-c5c(-c6ccccc6-c6ccccc6)cccc54)c3)c2)cc1 [Compound M-0043] |  |  | ≤5% | 
9 | Cc1cc(C)c(-c2cccc3c2-c2ccccc2C3(c2cc(-c3cc(-c4ccc(C(C)(C)C)cc4)cc(-c4ccc(C(C)(C)C)cc4)c3)cc(-c3cc(-c4ccc(C(C)(C)C)cc4)cc(-c4ccc(C(C)(C)C)cc4)c3)c2)c2cc(-c3cc(-c4ccc(C(C)(C)C)cc4)cc(-c4ccc(C(C)(C)C)cc4)c3)cc(-c3cc(-c4ccc(C(C)(C)C)cc4)cc(-c4ccc(C(C)(C)C)cc4)c3)c2)c(C)c1 [Compound M-0086] |  |  | ≤5% | 
10 | c1ccc(-c2cccc(-c3cc(-c4cccc(-c5ccccc5)c4)cc(C4(c5cc(-c6cccc(-c7ccccc7)c6)cc(-c6cccc(-c7ccccc7)c6)c5)c5ccccc5-c5c(-c6ccccc6)cccc54)c3)c2)cc1 [Compound M-0005] | ≤5% |  |  | ≤5%
